Results are given in words; binding and its absence hold for the method and conditions named. Some entries that bind do so weakly or less than the wild type.

Results on two molecules are retold here after patent US7252951B2, “Essential downstream component of the wingless signaling pathway and therapeutic and diagnostic applications based thereon” (Universität Zurich, priority 2000, dated 2007).

For test [1], the target named is T1, Armadillo (Arm), Drosophila homologue of β-Catenin (Drosophila) (UniProt P18824).
T1 sequence (looked up): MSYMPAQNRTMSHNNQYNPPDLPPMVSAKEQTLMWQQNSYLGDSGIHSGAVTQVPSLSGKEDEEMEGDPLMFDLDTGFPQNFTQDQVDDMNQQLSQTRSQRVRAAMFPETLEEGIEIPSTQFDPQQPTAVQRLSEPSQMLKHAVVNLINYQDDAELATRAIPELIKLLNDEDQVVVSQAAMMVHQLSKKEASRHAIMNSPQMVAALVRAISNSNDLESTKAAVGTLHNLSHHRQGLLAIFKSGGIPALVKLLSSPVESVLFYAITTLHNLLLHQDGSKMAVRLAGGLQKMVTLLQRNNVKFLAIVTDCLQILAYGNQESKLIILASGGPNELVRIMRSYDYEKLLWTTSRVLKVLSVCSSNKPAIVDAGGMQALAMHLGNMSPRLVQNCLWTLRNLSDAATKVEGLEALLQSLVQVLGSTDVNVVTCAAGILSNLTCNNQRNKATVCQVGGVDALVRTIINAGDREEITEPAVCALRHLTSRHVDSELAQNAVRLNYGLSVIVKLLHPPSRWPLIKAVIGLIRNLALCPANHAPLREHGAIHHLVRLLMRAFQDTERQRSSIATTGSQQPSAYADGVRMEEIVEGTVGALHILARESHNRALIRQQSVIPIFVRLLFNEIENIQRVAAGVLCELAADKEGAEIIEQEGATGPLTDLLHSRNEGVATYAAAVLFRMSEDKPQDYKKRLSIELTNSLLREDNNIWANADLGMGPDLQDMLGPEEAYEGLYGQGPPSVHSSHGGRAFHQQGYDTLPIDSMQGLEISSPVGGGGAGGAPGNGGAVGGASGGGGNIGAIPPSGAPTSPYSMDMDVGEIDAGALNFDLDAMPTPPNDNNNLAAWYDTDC
In words: genetic and biochemical experiments, method not given.

For test [2], the target named is T2, human Lgs/Bcl9 (hLgs/Bcl9) (human) (UniProt O00512).
T2 sequence: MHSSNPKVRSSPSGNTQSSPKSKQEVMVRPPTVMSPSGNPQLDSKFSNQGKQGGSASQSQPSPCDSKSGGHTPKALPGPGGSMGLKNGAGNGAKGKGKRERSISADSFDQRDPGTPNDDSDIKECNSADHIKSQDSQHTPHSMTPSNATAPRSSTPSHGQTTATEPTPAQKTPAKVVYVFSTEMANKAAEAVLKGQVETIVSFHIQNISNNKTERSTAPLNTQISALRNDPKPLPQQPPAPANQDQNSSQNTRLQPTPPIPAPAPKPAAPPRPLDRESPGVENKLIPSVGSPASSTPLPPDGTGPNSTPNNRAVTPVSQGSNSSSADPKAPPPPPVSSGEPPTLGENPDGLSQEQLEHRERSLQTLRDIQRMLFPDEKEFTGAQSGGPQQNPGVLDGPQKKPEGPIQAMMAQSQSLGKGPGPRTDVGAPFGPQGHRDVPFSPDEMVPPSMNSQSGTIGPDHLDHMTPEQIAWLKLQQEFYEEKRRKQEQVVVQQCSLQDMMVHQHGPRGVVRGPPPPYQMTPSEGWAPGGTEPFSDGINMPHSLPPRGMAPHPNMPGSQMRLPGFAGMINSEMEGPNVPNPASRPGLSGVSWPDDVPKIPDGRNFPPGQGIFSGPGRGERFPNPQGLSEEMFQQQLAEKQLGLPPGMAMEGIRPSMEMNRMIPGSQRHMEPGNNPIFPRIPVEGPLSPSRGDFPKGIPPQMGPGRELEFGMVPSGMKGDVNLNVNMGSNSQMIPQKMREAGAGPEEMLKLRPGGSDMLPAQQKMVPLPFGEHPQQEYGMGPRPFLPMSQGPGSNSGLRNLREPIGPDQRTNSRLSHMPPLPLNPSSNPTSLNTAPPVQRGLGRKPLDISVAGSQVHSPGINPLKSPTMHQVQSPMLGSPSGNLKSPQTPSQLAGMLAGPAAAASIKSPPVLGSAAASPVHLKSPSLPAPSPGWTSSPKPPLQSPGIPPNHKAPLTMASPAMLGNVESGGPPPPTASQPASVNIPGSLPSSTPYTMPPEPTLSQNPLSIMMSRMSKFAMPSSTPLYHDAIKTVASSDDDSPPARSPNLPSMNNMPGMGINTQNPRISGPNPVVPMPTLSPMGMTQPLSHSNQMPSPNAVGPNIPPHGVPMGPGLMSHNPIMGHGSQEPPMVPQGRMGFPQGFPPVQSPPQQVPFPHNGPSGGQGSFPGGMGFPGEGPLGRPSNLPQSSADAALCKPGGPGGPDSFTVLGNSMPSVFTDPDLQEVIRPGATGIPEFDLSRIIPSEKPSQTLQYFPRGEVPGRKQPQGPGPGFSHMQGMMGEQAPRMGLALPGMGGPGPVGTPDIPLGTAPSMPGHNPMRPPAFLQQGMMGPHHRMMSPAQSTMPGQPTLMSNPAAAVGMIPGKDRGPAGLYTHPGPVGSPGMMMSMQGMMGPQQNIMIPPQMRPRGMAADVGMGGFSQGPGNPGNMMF
In words: yeast two-hybrid.

B1: human Lgs/Bcl9 (hLgs/Bcl9) (protein)
chain: MHSSNPKVRSSPSGNTQSSPKSKQEVMVRPPTVMSPSGNPQLDSKFSNQGKQGGSASQSQPSPCDSKSGGHTPKALPGPGGSMGLKNGAGNGAKGKGKRERSISADSFDQRDPGTPNDDSDIKECNSADHIKSQDSQHTPHSMTPSNATAPRSSTPSHGQTTATEPTPAQKTPAKVVYVFSTEMANKAAEAVLKGQVETIVSFHIQNISNNKTERSTAPLNTQISALRNDPKPLPQQPPAPANQDQNSSQNTRLQPTPPIPAPAPKPAAPPRPLDRESPGVENKLIPSVGSPASSTPLPPDGTGPNSTPNNRAVTPVSQGSNSSSADPKAPPPPPVSSGEPPTLGENPDGLSQEQLEHRERSLQTLRDIQRMLFPDEKEFTGAQSGGPQQNPGVLDGPQKKPEGPIQAMMAQSQSLGKGPGPRTDVGAPFGPQGHRDVPFSPDEMVPPSMNSQSGTIGPDHLDHMTPEQIAWLKLQQEFYEEKRRKQEQVVVQQCSLQDMMVHQHGPRGVVRGPPPPYQMTPSEGWAPGGTEPFSDGINMPHSLPPRGMAPHPNMPGSQMRLPGFAGMINSEMEGPNVPNPASRPGLSGVSWPDDVPKIPDGRNFPPGQGIFSGPGRGERFPNPQGLSEEMFQQQLAEKQLGLPPGMAMEGIRPSMEMNRMIPGSQRHMEPGNNPIFPRIPVEGPLSPSRGDFPKGIPPQMGPGRELEFGMVPSGMKGDVNLNVNMGSNSQMIPQKMREAGAGPEEMLKLRPGGSDMLPAQQKMVPLPFGEHPQQEYGMGPRPFLPMSQGPGSNSGLRNLREPIGPDQRTNSRLSHMPPLPLNPSSNPTSLNTAPPVQRGLGRKPLDISVAGSQVHSPGINPLKSPTMHQVQSPMLGSPSGNLKSPQTPSQLAGMLAGPAAAASIKSPPVLGSAAASPVHLKSPSLPAPSPGWTSSPKPPLQSPGIPPNHKAPLTMASPAMLGNVESGGPPPPTASQPASVNIPGSLPSSTPYTMPPEPTLSQNPLSIMMSRMSKFAMPSSTPLYHDAIKTVASSDDDSPPARSPNLPSMNNMPGMGINTQNPRISGPNPVVPMPTLSPMGMTQPLSHSNQMPSPNAVGPNIPPHGVPMGPGLMSHNPIMGHGSQEPPMVPQGRMGFPQGFPPVQSPPQQVPFPHNGPSGGQGSFPGGMGFPGEGPLGRPSNLPQSSADAALCKPGGPGGPDSFTVLGNSMPSVFTDPDLQEVIRPGATGIPEFDLSRIIPSEKPSQTLQYFPRGEVPGRKQPQGPGPGFSHMQGMMGEQAPRMGLALPGMGGPGPVGTPDIPLGTAPSMPGHNPMRPPAFLQQGMMGPHHRMMSPAQSTMPGQPTLMSNPAAAVGMIPGKDRGPAGLYTHPGPVGSPGMMMSMQGMMGPQQNIMIPPQMRPRGMAADVGMGGFSQGPGNPGNMMF
As to B1, the binding entry in test [1] is “binds”.

B2: Daughter of Legless (dDoll) (protein, Drosophila, UniProt Q9V9W8 1-815, looked up)
chain: MTHNLGMAPYRLPGPAGGLCPPDFKPPPPTDIISAPSNPKKRRKTSSAANSAAAVAAAAAAAAAANSMQQQQAPPTPQDLLPPPPMGGFGDTIIASNPFDDSPQVSAMSSSAAAAMAAMNQMGGGPGGGHFGGGGPGGHPHWEDRMGMGGGPPPPPHMHPHMHPHHPGGPMGHPHGPHPHMGGPPPMRGMSPMHPHQMGPGPGVGLPPHMNHGRPGGPGGPGGPVPMGSPMGGIAGMGGMSPMGGMGGPSISPHHMGMGGLSPMGGGPNGPNPRAMQGSPMGGPGQNSPMNSLPMGSPMGNPIGSPLGPPSGPGPGNPGNTGGPQQQQQQPPQPPMNNGQMGPPPLHSPLGNGPTGHGSHMPGGPIPGPGPGPGGLVGPGGISPAHGNNPGGSGNNMLGGNPGGGNSNNNGSNTSNASNNNQNPHLSPAAGRLGVPTSMQSNGPSVSSVASSSVPSPATPTLTPTSTATSMSTSVPTSSPAPPAMSPHHSLNSAGPSPGMPNSGPSPLQSPAGPNGPNNNNSNNNNGPMMGQMIPNAVPMQHQQHMGGGPPGHGPGPMPGMGMNQMLPPQQPSHLGPPHPNMMNHPHHPHHHPGGPPPHMMGGPGMHGGPAGMPPHMGGGPNPHMMGGPHGNAGPHMGHGHMGGVPGPGPGPGGMNGPPHPHMSPHHGHPHHHHNPMGGPGPNMFGGGGGGPMGPGGPMGNMGPMGGGPMGGPMGVGPKPMTMGGGKMYPPGQPMVFNPQNPNAPPIYPCGMCHKEVNDNDEAVFCESGCNFFFHRTCVGLTEAAFQMLNKEVFAEWCCDKCVSSKHIPMVKFKC
Regarding B2, the binding result in test [2] is on record as “binds”.
